The subject of experiment [1] is MILI (PIWIL2) piRISC loaded with L1MC piRNA (26 nt). Put plainly: pre-steady-state target cleavage rate (min^-1); higher = faster piRNA-guided slicing of the target. To be noted: guide: L1MC piRNA 5'p-UAACUAAAUACUAUGCAAGCUGUAGG
The method in brief: (§1)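 The pre-steady-state cleavage rate was derived from a burst-and-steady-state fit of Cleave-'n-Seq data. For these assays, 1 nM active affinity-purified piRISC loaded with a single synthetic guide was mixed with […] a transcribed, DNA-blocked target RNA library in HEPES–potassium acetate buffer at 33 °C, with or without 500 nM GTSF1 partner protein, for 0–8 or 0–960 min. Sequencing counts of uncleaved targets were normalised to depth and to weakly complementary targets, and k3 was capped at 0.0001 min^-1 after three trials were pooled.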

Experiment [2] relates to EfPiwi piRISC loaded with L1MC piRNA (26 nt). Put plainly: pre-steady-state target cleavage rate (min^-1); guide: L1MC piRNA 5'p-UAACUAAAUACUAUGCAAGCUGUAGG; MIWI and MILI are mouse PIWI proteins and EfPiwi is from a freshwater sponge; tags in brackets are library labels; higher = faster piRNA-guided slicing of the target. In outline:
as §1

[3] abbreviates: auxiliary factor: none (no GTSF1).
Where [4] appears, read: auxiliary factor: none (no Gtsf1).
Where [5] appears, read: auxiliary factor: 500 nM mouse GTSF1.
Setting [6] is: auxiliary factor: 500 nM Ephydatia muelleri Gtsf1.

± gives the standard deviation. Only a part is listed here, and it is no random draw. The uncertainty is large for many entries. The list shows a part of the results.

UCCUGGAUGUCGAACGAUAGAUUUUAGUUA: the “pre-steady-state target cleavage rate” value in experiment [1] (setting [3]) stood at 0.000236 ± 0.017; in experiment [2] (setting [4]) it was 0.000477 ± 0.015.

Consider UCCUGCUACAGCUUGCAUAGUAUUUAGUUUA, for which the figures for the “pre-steady-state target cleavage rate” value in experiment [1] (setting [5]) and in experiment [2] (setting [6]) were 0.308 ± 0.018 and 0.0608 ± 0.016, respectively.

In the case of UCCUGCUACAGCUUGCAUAGUUUUUAGUAA, the “pre-steady-state target cleavage rate” value was found to be 0.00123 ± 0.0053 in experiment [1] (setting [3]) and 0.00424 ± 0.0013 in experiment [2] (setting [6]).

UCCUGCUACAGCUUGCAUAGUUUUUAGAUA: the results for the “pre-steady-state target cleavage rate” value in experiment [1] (setting [3]) and in experiment [2] (setting [4]) were 0.000955 ± 0.0065 and 0.000472 ± 0.015, respectively.

UCCUGCUACACGUUGCAUAGUAUUUAGUUA: the figures for the “pre-steady-state target cleavage rate” value in experiment [1] (setting [5]) and in experiment [2] (setting [6]) were 0.289 ± 0.026 and 0.0175 ± 0.0063, respectively.

On to UCCUGGAUCGCUUGCAUAGUAUUUAGUUA, for which the “pre-steady-state target cleavage rate” value was 0.29 ± 0.012 in experiment [1] (setting [5]) and 0.065 ± 0.011 in experiment [2] (setting [6]).

For the sequence UCCUGGUACAGGUUGCAUAGAAUUUAGUUA, the results for the “pre-steady-state target cleavage rate” value in experiment [1] (setting [3]) and in experiment [2] (setting [4]) were 0.00238 ± 0.0042 and 0.000559 ± 0.017, respectively.

With UCCUGGAUGUCGAUGCACUAGUAUUUAGUUA, the “pre-steady-state target cleavage rate” value is 0.00013 ± 0.024 in experiment [1] (setting [3]) and 0.000153 ± 0.023 in experiment [2] (setting [6]).

For UCCUCCUACAGCUUGCAUAGUAUUUUGAUA, the entries for the “pre-steady-state target cleavage rate” value in experiment [1] (setting [3]) and in experiment [2] (setting [6]) were 0.00203 ± 0.0032 and 0.0044 ± 0.0029, respectively.

UCCUGCUACAGGUUGCAUAGUAUUUACUUA: the “pre-steady-state target cleavage rate” value in experiment [1] (setting [3]) amounted to 0.00162 ± 0.0036; in experiment [2] (setting [6]), 0.000612 ± 0.0054.

Turning to UCCUGGAUGUCGAACGUAUCUAUUUAGUGUA, the “pre-steady-state target cleavage rate” value is 0.000142 ± 0.03 in experiment [1] (setting [3]) and 0.000552 ± 0.017 in experiment [2] (setting [4]).

For the sequence UCCUGGUACAGCUUGCAUAGAAUUUAGAAA, the “pre-steady-state target cleavage rate” value in experiment [1] (setting [3]) is 0.00193 ± 0.0049; in experiment [2] (setting [6]), 0.00253 ± 0.0021.

In the case of UCCUGGAUGAGCUUGCAUAGUAUUUUGUAA, the “pre-steady-state target cleavage rate” value came to 0.000804 ± 0.0089 in experiment [1] (setting [3]) and 0.00129 ± 0.0048 in experiment [2] (setting [6]).

As for UCCUGGAUGUCGAACGAUAAGUAUUUAGUUA, the “pre-steady-state target cleavage rate” value was determined as 0.000252 ± 0.025 in experiment [1] (setting [5]) and 0.000142 ± 0.044 in experiment [2] (setting [6]).

Regarding UCCUGGAUCAGCUUGGAUAGAAUUUAGUUA, the results for the “pre-steady-state target cleavage rate” value in experiment [1] (setting [3]) and in experiment [2] (setting [6]) were 0.00143 ± 0.0038 and 0.000762 ± 0.0046, respectively.

Regarding UCCUGGAUGAGCUUGCAUAGUAUUUAGCUA, the “pre-steady-state target cleavage rate” value in experiment [1] (setting [3]) was determined as 0.0005 ± 0.014; in experiment [2] (setting [6]) it was 0.00145 ± 0.0022.

Turning to UCCUGGAACAGCUUGCAUAGUAUUUAGAUUA, the “pre-steady-state target cleavage rate” value was 0.00209 ± 0.0049 in experiment [1] (setting [3]) and 0.00539 ± 0.002 in experiment [2] (setting [6]).

As to UCCUGCUACAGCUUCCAUAGUAUUUAGUUA, the “pre-steady-state target cleavage rate” value in experiment [1] (setting [3]) is 0.0015 ± 0.0037; in experiment [2] (setting [4]), 0.000105 ± 0.027.

As for UCCUGGAACAGCUUGCAUACUAUUUACUUA, the “pre-steady-state target cleavage rate” value in experiment [1] (setting [3]) came to 0.00103 ± 0.0055; in experiment [2] (setting [6]) it was 0.00304 ± 0.0038.

UCCUGCUACAGCUUGCAUAGUCUUUAGUUA: the “pre-steady-state target cleavage rate” value in experiment [1] (setting [3]) is 0.00239 ± 0.003; in experiment [2] (setting [4]), 0.000283 ± 0.012.

UCCUGGAUCAGGUUGCAUAGUAUUUAGAUA: the “pre-steady-state target cleavage rate” value in experiment [1] (setting [3]) worked out at 0.00239 ± 0.0034; in experiment [2] (setting [6]), 0.00381 ± 0.0026.

On to “UCCUGGAUCAGCUUGCAUAGUAUUUAGUUU [g2:g22:cont:t1U]”, for which the “pre-steady-state target cleavage rate” value in experiment [1] (setting [5]) was determined as 0.357 ± 0.019; in experiment [2] (setting [6]) it was 0.121 ± 0.025.

The record behind these values is the supplement of paper PMC10338343.
